Among the data in article PMC9424285 are binding values, retold here.

Sequences of proteins named here, by UniProt entry; tags and fusion partners are left off. A change or cut given only in a name is not applied to a line headed by its entry.
UniProt Q05397: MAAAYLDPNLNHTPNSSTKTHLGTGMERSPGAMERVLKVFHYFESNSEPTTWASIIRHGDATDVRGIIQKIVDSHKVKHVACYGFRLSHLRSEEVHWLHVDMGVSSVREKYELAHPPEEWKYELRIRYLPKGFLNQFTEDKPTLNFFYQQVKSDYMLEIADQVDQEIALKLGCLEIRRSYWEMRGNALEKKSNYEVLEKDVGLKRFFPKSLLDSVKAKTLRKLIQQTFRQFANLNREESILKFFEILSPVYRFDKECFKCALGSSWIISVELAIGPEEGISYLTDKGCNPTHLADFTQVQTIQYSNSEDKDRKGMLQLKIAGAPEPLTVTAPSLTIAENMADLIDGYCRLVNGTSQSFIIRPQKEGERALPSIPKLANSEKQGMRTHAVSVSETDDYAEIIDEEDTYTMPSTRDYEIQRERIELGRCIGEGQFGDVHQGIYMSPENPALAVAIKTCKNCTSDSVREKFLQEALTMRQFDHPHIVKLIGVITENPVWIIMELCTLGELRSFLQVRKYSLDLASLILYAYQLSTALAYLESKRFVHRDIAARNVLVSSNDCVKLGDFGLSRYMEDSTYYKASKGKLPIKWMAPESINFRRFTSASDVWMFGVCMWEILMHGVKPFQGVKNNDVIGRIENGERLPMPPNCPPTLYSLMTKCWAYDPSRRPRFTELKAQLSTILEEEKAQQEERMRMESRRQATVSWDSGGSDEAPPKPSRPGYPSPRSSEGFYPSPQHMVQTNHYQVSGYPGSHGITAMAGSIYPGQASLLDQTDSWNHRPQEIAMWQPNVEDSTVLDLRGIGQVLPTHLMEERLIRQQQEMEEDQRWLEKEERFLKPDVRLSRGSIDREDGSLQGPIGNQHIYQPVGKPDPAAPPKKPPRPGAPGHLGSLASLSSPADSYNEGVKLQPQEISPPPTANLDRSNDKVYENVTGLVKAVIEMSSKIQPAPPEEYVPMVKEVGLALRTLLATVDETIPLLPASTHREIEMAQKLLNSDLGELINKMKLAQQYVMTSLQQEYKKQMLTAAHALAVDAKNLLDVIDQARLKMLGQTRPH
UniProt P23743: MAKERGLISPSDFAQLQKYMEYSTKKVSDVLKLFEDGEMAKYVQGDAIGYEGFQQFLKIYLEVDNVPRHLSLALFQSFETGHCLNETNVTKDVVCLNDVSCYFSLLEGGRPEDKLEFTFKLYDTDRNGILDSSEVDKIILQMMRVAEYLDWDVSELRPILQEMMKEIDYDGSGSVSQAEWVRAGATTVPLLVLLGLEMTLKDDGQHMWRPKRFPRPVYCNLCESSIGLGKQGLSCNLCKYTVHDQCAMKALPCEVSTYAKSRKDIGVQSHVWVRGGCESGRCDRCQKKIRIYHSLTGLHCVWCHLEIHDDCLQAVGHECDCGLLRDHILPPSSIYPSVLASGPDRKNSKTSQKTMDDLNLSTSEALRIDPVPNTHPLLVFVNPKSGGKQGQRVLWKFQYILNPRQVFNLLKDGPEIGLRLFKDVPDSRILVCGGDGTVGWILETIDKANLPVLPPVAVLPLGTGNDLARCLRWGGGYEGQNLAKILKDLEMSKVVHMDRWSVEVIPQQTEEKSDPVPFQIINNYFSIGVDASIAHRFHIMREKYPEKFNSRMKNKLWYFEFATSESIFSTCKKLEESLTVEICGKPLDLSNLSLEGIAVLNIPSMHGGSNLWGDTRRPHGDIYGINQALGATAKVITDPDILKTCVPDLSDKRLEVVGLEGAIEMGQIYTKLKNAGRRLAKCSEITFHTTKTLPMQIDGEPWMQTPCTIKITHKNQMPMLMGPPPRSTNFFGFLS
UniProt P27986: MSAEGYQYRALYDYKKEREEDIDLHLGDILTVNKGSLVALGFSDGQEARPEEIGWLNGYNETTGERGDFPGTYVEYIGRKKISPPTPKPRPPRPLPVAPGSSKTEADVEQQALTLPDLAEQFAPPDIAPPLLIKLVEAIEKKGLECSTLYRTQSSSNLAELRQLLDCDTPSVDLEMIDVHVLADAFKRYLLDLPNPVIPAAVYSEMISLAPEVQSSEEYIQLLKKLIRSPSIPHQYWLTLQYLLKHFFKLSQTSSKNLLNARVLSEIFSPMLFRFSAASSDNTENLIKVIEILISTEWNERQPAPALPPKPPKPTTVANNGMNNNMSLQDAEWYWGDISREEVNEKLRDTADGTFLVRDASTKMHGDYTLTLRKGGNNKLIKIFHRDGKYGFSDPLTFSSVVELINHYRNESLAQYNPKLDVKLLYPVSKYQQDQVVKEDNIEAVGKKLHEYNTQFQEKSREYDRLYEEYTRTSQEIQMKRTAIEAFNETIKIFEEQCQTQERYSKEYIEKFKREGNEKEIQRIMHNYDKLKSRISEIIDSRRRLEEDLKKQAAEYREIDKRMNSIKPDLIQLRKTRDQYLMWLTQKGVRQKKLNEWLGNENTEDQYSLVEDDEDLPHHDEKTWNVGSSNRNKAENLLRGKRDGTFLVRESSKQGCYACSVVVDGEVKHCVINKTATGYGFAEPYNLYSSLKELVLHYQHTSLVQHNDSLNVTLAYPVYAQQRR

These are yes or no findings as the source states them, for the method shown. Binding seen in cells or lysates may run through a third protein. Some entries that bind do so weakly or less than the wild type.

Test [1] addresses focal adhesion kinase (FAK) (human (endogenous in KYSE410 and KYSE510)) (UniProt Q05397). In words: co-IP; immunoprecipitation-immunoblotting of DGKα and FAK at the plasma membrane; control, vector or DGKα Y335F mutant KYSE410 and KYSE510 cells treated with CCL22 (50 ng/ml). A general note: Immunoblotting shows a protein as a band on a membrane.
The target of test [2] is T1, C-C motif chemokine receptor 4 (CCR4) (human (endogenous in KYSE410 and KYSE510)) (UniProt P51679).
T1 sequence: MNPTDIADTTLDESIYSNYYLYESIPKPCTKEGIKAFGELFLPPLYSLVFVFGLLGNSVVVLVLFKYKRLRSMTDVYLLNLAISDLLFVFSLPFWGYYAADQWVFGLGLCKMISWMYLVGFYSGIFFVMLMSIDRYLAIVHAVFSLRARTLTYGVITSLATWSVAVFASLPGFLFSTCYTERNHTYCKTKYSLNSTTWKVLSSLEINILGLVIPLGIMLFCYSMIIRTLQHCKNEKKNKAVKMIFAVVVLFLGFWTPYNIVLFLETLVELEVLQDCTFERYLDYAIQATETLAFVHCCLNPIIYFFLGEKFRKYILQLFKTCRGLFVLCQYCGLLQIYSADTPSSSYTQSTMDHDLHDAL
In words: co-IP; immunoprecipitation-immunoblotting of KYSE410 and KYSE510 cells treated with CM from pol-TAMs, CM from pri-TAMs or CCL22 (50 ng/ml).

Test [3] concerns the target T2, phospholipase C-γ1 (PLC-γ1) (human (endogenous in KYSE410 and KYSE510)) (UniProt P19174).
T2 sequence: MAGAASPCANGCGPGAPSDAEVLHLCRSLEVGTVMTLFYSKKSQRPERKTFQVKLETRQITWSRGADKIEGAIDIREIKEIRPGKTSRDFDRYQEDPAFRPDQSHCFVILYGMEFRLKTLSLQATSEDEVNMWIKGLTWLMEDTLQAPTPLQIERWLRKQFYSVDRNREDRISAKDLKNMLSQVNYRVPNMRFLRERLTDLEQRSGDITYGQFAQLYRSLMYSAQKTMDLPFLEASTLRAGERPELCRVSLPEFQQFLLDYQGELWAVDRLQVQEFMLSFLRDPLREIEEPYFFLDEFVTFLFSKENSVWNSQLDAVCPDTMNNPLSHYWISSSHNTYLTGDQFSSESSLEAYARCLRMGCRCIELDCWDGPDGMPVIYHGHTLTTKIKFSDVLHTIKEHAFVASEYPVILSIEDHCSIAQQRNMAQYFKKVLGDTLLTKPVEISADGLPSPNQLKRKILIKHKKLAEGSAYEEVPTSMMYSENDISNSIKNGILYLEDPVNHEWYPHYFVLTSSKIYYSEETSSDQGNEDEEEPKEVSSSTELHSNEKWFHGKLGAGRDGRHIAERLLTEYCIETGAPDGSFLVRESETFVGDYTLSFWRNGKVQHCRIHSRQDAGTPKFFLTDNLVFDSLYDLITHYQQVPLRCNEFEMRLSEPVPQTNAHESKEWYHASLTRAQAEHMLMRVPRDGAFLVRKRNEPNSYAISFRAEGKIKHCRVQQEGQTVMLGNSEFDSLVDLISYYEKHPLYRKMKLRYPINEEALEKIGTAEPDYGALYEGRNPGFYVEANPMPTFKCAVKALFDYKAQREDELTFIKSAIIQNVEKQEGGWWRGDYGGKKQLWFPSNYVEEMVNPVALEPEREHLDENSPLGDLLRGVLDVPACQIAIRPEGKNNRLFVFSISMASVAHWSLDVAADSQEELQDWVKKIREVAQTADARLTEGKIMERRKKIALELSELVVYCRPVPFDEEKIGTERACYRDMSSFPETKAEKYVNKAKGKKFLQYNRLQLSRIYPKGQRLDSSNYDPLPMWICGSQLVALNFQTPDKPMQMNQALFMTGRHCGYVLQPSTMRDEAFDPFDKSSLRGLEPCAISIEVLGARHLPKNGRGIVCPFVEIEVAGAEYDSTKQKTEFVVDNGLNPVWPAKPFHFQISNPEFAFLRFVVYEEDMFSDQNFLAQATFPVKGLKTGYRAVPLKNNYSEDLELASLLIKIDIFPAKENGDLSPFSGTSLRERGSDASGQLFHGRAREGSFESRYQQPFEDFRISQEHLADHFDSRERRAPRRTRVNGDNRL
In words: co-IP; immunoprecipitation-immunoblotting of KYSE410 or KYSE510 cells treated with CCL22 (50 ng/ml); PLC-γ1 against its partners.

In test [4] the target is focal adhesion kinase (FAK) (human (endogenous in KYSE410 and KYSE510)) (UniProt Q05397). The experiment in a line: condition: only cells with CCR4 siRNA, PLC-γ1 siRNA or BAPTA-AM (10 μM); co-IP; immunoprecipitation-immunoblotting of DGKα and FAK at the plasma membrane; KYSE410 and KYSE510 cells with CCR4 siRNA, PLC-γ1 siRNA or the Ca2+ chelator BAPTA-AM (10 μM, 90 min) and then CCL22 (50 ng/ml).

Regarding “Flag-DGKα Y335F (from UniProt P23743 1-735) (enzyme)”, the binding entry in test [1] is “no binding”.

Regarding “PI3K regulatory subunit p85α (from UniProt P27986 1-724)”, the binding entry in test [2] is given as “no binding”. With “diacylglycerol kinase α (DGKα) (from UniProt P23743 1-735) (enzyme)”, the binding result is given as “binds” in test [1], “binds” in test [3] and “no binding” in test [4]. Take “focal adhesion kinase (FAK) (from UniProt Q05397 1-1052) (enzyme)”: the binding entry in test [3] was “no binding”.
